PubChem BioAssay AID1259254 – NCATS – 2017
The whole screen tested about 59,000 reagents; below is a random part of them. Over the whole deposit, about 1,550 (2.6%) were called active. 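G2 share is only a proxy for re-replication; each gene was hit by three separate siRNAs, and active genes were retested.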 The numbers tell different reagents against one gene apart. Further read-outs or replicates are left out here. No sequences are given here. Not given: the amount of reagent.

Test: 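Genome-wide screen for genes that prevent DNA re-replication in cancer cells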 (primary screen)
System: human HCT116 colorectal cancer cells
Reagents: single siRNA against human genes
Time to read-out: 3 days
Detection: 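Imaged Hoechst DNA stain sorts each cell into a cycle phase by DNA amount; per plate, G2 fraction set to 0% for non-targeting and 100% for GMNN siRNA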
Direction: G2 robust z-score and G2 cells, % of GMNN control: higher = more G2 cells, more excess DNA replication
Hit rule: 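An siRNA counts as active if its G2 robust z-score lies at least 5 MADs above the screen median; here such calls match roughly 38% of GMNN control or more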

gene	siRNA no.	G2 robust z-score	G2 cells, % of GMNN control	activity call
GSTA3	1	-0.0925	2.32	inactive
GSTA3	2	0.296	5.05	inactive
GSTA3	3	0.148	4.01	inactive
TRIM13	1	0.61	7.26	inactive
TRIM13	2	-0.00976	2.9	inactive
TRIM13	3	-0.0831	2.38	inactive
C4orf51	1	-0.946	-3.69	inactive
C4orf51	2	2.44	20.2	inactive
C4orf51	3	-0.747	-2.29	inactive
LY86	1	-0.307	0.805	inactive
LY86	2	-0.789	-2.58	inactive
LY86	3	0.132	3.89	inactive
ARMC7	1	-0.933	-3.59	inactive
ARMC7	2	0.441	6.07	inactive
ARMC7	3	0.642	7.49	inactive
SLC25A2	1	-0.0754	2.44	inactive
SLC25A2	2	8.18	60.5	active
SLC25A2	3	-0.196	1.59	inactive
SAXO2	1	2.83	22.9	inactive
SAXO2	2	1.52	13.7	inactive
SAXO2	3	0.777	8.43	inactive
FBXL2	1	-0.903	-3.39	inactive
FBXL2	2	0.947	9.63	inactive
FBXL2	3	-0.303	0.838	inactive
RALYL	1	0.3	5.08	inactive
RALYL	2	0.467	6.25	inactive
RALYL	3	-0.455	-0.231	inactive
TTL	1	0.0575	3.37	inactive
TTL	2	5.76	43.5	active
TTL	3	3.74	29.3	inactive
ZNF74	1	-0.743	-2.26	inactive
ZNF74	2	1.39	12.8	inactive
ZNF74	3	0.218	4.5	inactive
SLC18B1	1	-0.525	-0.724	inactive
SLC18B1	2	2.08	17.6	inactive
SLC18B1	3	-0.113	2.17	inactive
GXYLT1	1	0.307	5.13	inactive
GXYLT1	2	0.691	7.83	inactive
GXYLT1	3	0.175	4.2	inactive
MAP3K4	1	1.66	14.7	inactive
MAP3K4	2	-0.704	-1.98	inactive
MAP3K4	3	0.0604	3.39	inactive
PPP2R2B	1	5.47	41.5	active
PPP2R2B	2	0.0678	3.44	inactive
PPP2R2B	3	-0.438	-0.117	inactive
UBE2T	1	-0.809	-2.72	inactive
UBE2T	2	0.136	3.93	inactive
UBE2T	3	1.42	13	inactive
ZXDC	1	3.7	29	inactive
ZXDC	2	-0.563	-0.995	inactive
ZXDC	3	0.805	8.63	inactive
NOL10	1	4.07	31.6	inactive
NOL10	2	1.77	15.4	inactive
NOL10	3	1.23	11.7	inactive
CFL2	1	0.128	3.87	inactive
CFL2	2	0.763	8.34	inactive
CFL2	3	0.992	9.95	inactive
CD2AP	1	-0.661	-1.68	inactive
CD2AP	2	-0.693	-1.91	inactive
CD2AP	3	1.21	11.4	inactive
RRAGA	1	-1	-4.07	inactive
RRAGA	2	-0.401	0.148	inactive
RRAGA	3	-0.0223	2.81	inactive
CAMSAP2	1	-1.27	-5.99	inactive
CAMSAP2	2	1.37	12.6	inactive
CAMSAP2	3	-0.375	0.33	inactive
SEC14L2	1	2.88	23.2	inactive
SEC14L2	2	-0.569	-1.04	inactive
SEC14L2	3	-0.207	1.51	inactive

Ordered by “G2 robust z-score” (ascending): 6 of the entries above.
gene	siRNA no.	G2 robust z-score	G2 cells, % of GMNN control	activity call
CAMSAP2	1	-1.27	-5.99	inactive
RRAGA	2	-0.401	0.148	inactive
CAMSAP2	3	-0.375	0.33	inactive
RRAGA	3	-0.0223	2.81	inactive
CAMSAP2	2	1.37	12.6	inactive
SEC14L2	1	2.88	23.2	inactive
